Source: patent US20050148545A1, “Glucosamine organic acid adducts” (priority 2001, published 2005)

Experiment: Taste difference from control test, sensory panel
Set-up: key to Numerical Results (Average), difference from control: 0=no difference; 1=trace; 2=slight; 3=moderate; 4=strong; 5=very strong
Conditions: 0.44% weight/weight in water, panel of 7 individuals; for Numerical Results (Average), difference from control: 5 point scale for difference from glucosamine hydrochloride control; for Taste Results: compared with glucosamine hydrochloride control

Row | SMILES | Numerical Results (Average), difference from control | Taste Results | Numerical Results (Average), difference from control (citrate) | Taste Results (citrate)
1 | Cl.N[C@H]1C(O)O[C@H](CO)[C@@H](O)[C@@H]1O (some centres unmarked) [Blind Control, glucosamine hydrochloride, reference compound] | 1 | Trace sweet, bitter |  | 
2 | N[C@H]1C(O)O[C@H](CO)[C@@H](O)[C@@H]1O.O=C(O)CC(O)(CC(=O)O)C(=O)O [1G:3C, glucosamine citrate] |  |  | 5 | Very strong ++sour, very strong
3 | N[C@H]1C(O)O[C@H](CO)[C@@H](O)[C@@H]1O.O=C(O)CC(O)(CC(=O)O)C(=O)O [1G:1C, glucosamine citrate] |  |  | 4 | Strong sour, slight astringent
4 | N[C@H]1C(O)O[C@H](CO)[C@@H](O)[C@@H]1O.O=C(O)CC(O)(CC(=O)O)C(=O)O [1G:2C, glucosamine citrate] |  |  | 5 | Very strong sour, strong astringent
